Reference: patent US7777060B2, “Platinum analogs with bis-nitrile-containing ligands” (BioNumerik Pharmaceuticals, Inc., priority 2007, dated 2010)
Some results were stated once for a whole list of compounds, not compound by compound. At least one structure is not confirmed: it was looked up by name or label, or the drawing left a doubt.

Key:
A2780/CP3 = experiment: Cytotoxicity IC50 in A2780/CP3 cell line, 1 hour drug exposure; assay type: cell-based; conditions: resistance factor = IC50 in A2780/CP3 ÷ IC50 in A2780/WT
Procedure: (§1) All experiments are with 1 hour of exposure to the drug, IC50 in μM. The platinum compounds have been tested by the resistance factor in CP3 cell line (CP3 Rfact) and C25 cell line (C25 Rfact). The terms (CP3 Rfact) and (C25 Rfact) are determined utilizing the following equations, wherein WT stands for wild-type. CP3 Rfact=IC50 in A2780/CP3÷IC50 in A2780/WT C25 Rfact=IC50 in A2780/C25÷IC50 in A2780/WT
(§2) In addition, Compounds with “ - - - ” in the IC50 column indicate the IC50s are >100 μM.

A2780/C25 = experiment: Cytotoxicity IC50 in A2780/C25 cell line, 1 hour drug exposure; assay type: cell-based; conditions: resistance factor = IC50 in A2780/C25 ÷ IC50 in A2780/WT
Procedure: as §1, §2

Row | SMILES | CP3 Rfact (A2780/CP3) | C25 Rfact (A2780/C25)
1 | COC(CCC#N)c1ccccc1.COC(CCC#N)c1ccccc1.[Cl][Pt@SP1][Cl] (stereo not drawn) [BNP3017, Cis-bis(4-methoxy-4-phenylbutyronitrile)dichloroplatinum (II)] | < 2 | < 2
2 | N#CC1Cc2ccccc21.N#CC1Cc2ccccc21.[Cl][Pt@SP1][Cl] (stereo not drawn) [BNP3030, Cis-bis(bicyclo[4.2.0]octa-1(6),2,4-triene-7-carbonitrile)dichloroplatinum (II)] | < 2 | < 2
